Assay results from patent US20160287536A1, “Composition” (THE UNIVERSITY OF NOTTINGHAM, priority 2013, published 2016).

How the values were obtained:
[1] = tested on: α2-adrenoceptor; test: Saturation radioligand binding of [^3H]-RX821002 to sheep anorectal tissue membranes; conditions: sheep rectal artery, sheep rectal vein and terminal branches
[2] = tested on: α1-adrenoceptor; test: Saturation radioligand binding of [^3H]-prazosin to sheep anorectal tissue membranes

Row | Structure (SMILES) | density of α2-adrenoceptors bound to [^3H]-RX821002 (Bmax) [1] | density of α1-adrenoceptors ([^3H]-prazosin binding, Bmax) ([2]; sheep rectal artery and vein) | density of α1-adrenoceptors ([^3H]-prazosin binding, Bmax) ([2]; terminal branches of rectal vessels) [fmol/mg protein]
1 | COC1(C2=NCCN2)COc2ccccc2O1 (stereo not drawn) [[^3H]-RX821002, 2-(2-methoxy-1,4-benzodioxan-2-yl)-2-imidazoline] | about 60 fmol/mg protein |  | 
2 | COc1cc2nc(N3CCN(C(=O)c4ccco4)CC3)nc(N)c2cc1OC [[^3H]-prazosin] |  | about 100 fmol/mg protein | 36.5
